Results are given in words; binding and its absence hold for the method and conditions named. Some entries that bind do so weakly or less than the wild type.
Molecular target: GroEL (E. coli, UniProt P0A6F5 1-548)
Experiment: SEC

Sequences of proteins named here, by UniProt entry; tags and fusion partners are left off.
UniProt P0A6F5, whole entry: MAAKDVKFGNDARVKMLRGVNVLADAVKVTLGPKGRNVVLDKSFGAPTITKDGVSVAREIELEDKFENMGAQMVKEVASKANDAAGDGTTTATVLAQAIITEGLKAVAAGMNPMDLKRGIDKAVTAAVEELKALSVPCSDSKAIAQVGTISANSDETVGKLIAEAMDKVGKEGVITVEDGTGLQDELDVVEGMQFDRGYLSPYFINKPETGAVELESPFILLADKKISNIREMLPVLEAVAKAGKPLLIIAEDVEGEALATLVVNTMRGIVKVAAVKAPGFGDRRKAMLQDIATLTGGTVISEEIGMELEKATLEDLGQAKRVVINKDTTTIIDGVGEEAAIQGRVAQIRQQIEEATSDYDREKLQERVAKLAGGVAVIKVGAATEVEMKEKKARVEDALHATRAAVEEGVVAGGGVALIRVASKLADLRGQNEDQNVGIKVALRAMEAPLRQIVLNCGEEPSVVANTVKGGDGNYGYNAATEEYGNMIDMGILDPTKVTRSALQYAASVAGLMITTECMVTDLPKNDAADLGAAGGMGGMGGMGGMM

B1: unfolded citrate synthase (protein, UniProt P00889 28-464)
chain: ASSTNLKDILADLIPKEQARIKTFRQQHGNTVVGQITVDMMYGGMRGMKGLVYETSVLDPDEGIRFRGYSIPECQKMLPKAKGGEEPLPEGLFWLLVTGQIPTEEQVSWLSKEWAKRAALPSHVVTMLDNFPTNLHPMSQLSAAITALNSESNFARAYAEGIHRTKYWELIYEDCMDLIAKLPCVAAKIYRNLYREGSSIGAIDSKLDWSHNFTNMLGYTDAQFTELMRLYLTIHSDHEGGNVSAHTSHLVGSALSDPYLSFAAAMNGLAGPLHGLANQEVLVWLTQLQKEVGKDVSDEKLRDYIWNTLNSGRVVPGYGHAVLRKTDPRYTCQREFALKHLPHDPMFKLVAQLYKIVPNVLLEQGKAKNPWPNVDAHSGVLLQYYGMTEMNYYTVLFGVSRALGVLAQLIWSRALGFPLERPKSMSTDGLIKLVDSK
binding: binds
